Data published in PubChem BioAssay AID493014 (National Center for Advancing Translational Sciences (NCATS), 2011).
The whole screen tested about 340,000 compounds, of which about 170 (0.05%) were called active. Inconclusive results, whose numbers are uncertain, are shown with a selection of clear calls. The call rests on the fitted dose curve; in most records, active means well fitted inhibition curve with a large enough effect in the signal ratio, with a control signal flat (not every such curve was filed as active); inconclusive means small, poorly fitted or top-dose-only effect, or effect the other way, or a change in a side signal; inactive means flat fitted curve, though single readings scatter; the % refers to the signal ratio. Potencies of inconclusive entries are doubtful fits and often do not repeat.

Experiment: qHTS Assay to Find Inhibitors of Chronic Active B-Cell Receptor Signaling;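 on activity change, negative = inhibition: plate controls were basal doxycycline-induced cells for no effect and cells given 10 µM MG132 for full effect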
Details: ABC-DLBCL IkBa-CBG/CBR reporter, luminescence ratio (green luciferase fused to IkBa over red control in TMD8 lymphoma cells), 4 h; activity change, negative = inhibition: at 46.1 µM (top of the series) unless noted
Procedure, shortened: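 TMD8 ABC-DLBCL cells carrying doxycycline-inducible green luciferase fused to IkappaBalpha plus unfused red luciferase were exposed to compounds (up to 46 uM) for 4 hrs at 37C. Activity came from the overlap-corrected green/red luminescence ratio.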
Potency means the concentration at half of the fitted maximal effect.

SMILES	activity change, negative = inhibition	Potency
Cc1cccc(NC(=O)CSCC(=O)Nc2cccc(S(=O)(=O)N3CCCCCC3)c2)c1	inconclusive: -15.6%	–
O=C(NCCC1=CCCCC1)c1cc2c(s1)CS(=O)(=O)C2	inconclusive: 2.61%	–
CCOC(=O)C(C)Sc1nc(=O)n2cc(C)ccc2n1 (stereo not given)	inactive: -0.739%	–
N#CC1=C(SCc2ccccc2)NC(=O)CC1c1ccc(O)cc1 (stereo not given)	inconclusive: -20.4%	–
Cc1ccc(CC(=O)Nc2ccc(F)c([N+](=O)[O-])c2)cc1	–	inconclusive: 11.6 µM [rising, partial curve, poor fit]
O=C(N/N=C\c1cccnc1)c1ccc(Br)s1	inactive: 2.95%	–
Cc1ccc(C(=O)NCCc2cccs2)cc1	–	inconclusive: 31.6 µM [rising, single point]
CCCCn1c(C)cc2c(c1=O)C1O[C@](CCCC)(Cc3cc(C#N)ccc31)O2	inactive: 25% [at 9.22 µM]	–
COc1ccccc1CCC(=O)N1CCN(S(=O)(=O)c2cccc(F)c2)CC1	inactive: -7.3%	–
CSc1nc(N(C)C)nc(N(C#N)CCOC(C)=O)n1	–	inconclusive: 6.31 µM [rising, partial curve]
CN(CC(=O)Nc1ccc(Cl)c(C(F)(F)F)c1)C(=O)CCN1C(=O)C2CCCCC2C1=O (stereo not given)	inconclusive: -2.48%	–
CC(C)Cc1ccc(CN2CCCC(NC(=O)c3cccc(-n4cnnc4)c3)C2)cc1 (stereo not given)	inconclusive: -19%	–
O=C(COc1ccc2ccccc2c1)NCC(=O)N/N=C/c1ccco1	–	inconclusive: 25.9 µM [falling, partial curve, poor fit]
Cc1c(/C(O)=C2/C(=O)C(=O)N(CCN(C)C)C2c2ccc(C(C)C)cc2)cnn1-c1ccccc1 (stereo not given)	–	inconclusive: 17.8 µM [rising, single point]
O=C(NC12CC3CC(CC(C3)C1)C2)c1ccc(COc2ccc(Cl)cc2[N+](=O)[O-])o1	–	inconclusive: 10 µM [rising, partial curve]
CC(=O)Nc1ccc2sccc2c1	inconclusive: 6.35%	–
CCC(=O)Oc1ccc(C(=O)Nc2cccc(C(=O)NC(C)(C)C)c2)cc1	inconclusive: -1.96%	–
Cc1cc(C)n2ncc(C(=O)Nc3ccc(Cl)c(Cl)c3)c2n1	inconclusive: 20.7%	–
N#C/C(=C/c1cn(CC(=O)O)c2ccccc12)C(=O)NCc1ccccc1	inconclusive: -1.13%	–
O=C(CSc1nnnn1-c1ccc(F)cc1)NNC(=O)c1ccco1	inconclusive: -4.14%	–

SMILES	activity change, negative = inhibition	Potency
Cc1cc(C(=O)COc2ccc(Br)cc2F)c(C)n1C1CC1	inconclusive: 10.7%	–
N#Cc1ccc(NC(=O)Nc2ccc(Oc3ccc(NC(=O)Nc4ccc(C#N)cc4)cc3)cc2)cc1	inconclusive: 6.41%	–
COc1ccc(-c2cc(=O)c3c(OC)c(OC)c(OC)c(OC)c3o2)cc1OC	inconclusive: -10.6%	–
COC(=O)CC1=C(C(=O)OC)C(c2ccncc2)C(C#N)=C(N)O1 (stereo not given)	inconclusive: -1.29%	–
CCOC(=O)C1CCCN(S(=O)(=O)CCNC(=O)c2cccc(OC)c2)C1 (stereo not given)	–	inconclusive: 6.51 µM [falling, single point]
COc1cc(C(=O)NC2CCN(Cc3nnnn3Cc3ccc(F)cc3)CC2)cc(OC)c1OC	–	inconclusive: 14.1 µM [falling, partial curve]
CCOc1ccc(C(=O)Nc2ccc(NC(=O)c3ccco3)c(Cl)c2)cc1Cl	inactive: 21.5%	–
N#Cc1ccccc1S(=O)(=O)N1CCC(C(=O)NCc2ccccc2CN2CCCC2)CC1	inactive: 8.07%	–
CC(OC(=O)c1ccccc1Br)C(=O)Nc1nc(-c2cccc([N+](=O)[O-])c2)cs1 (stereo not given)	inconclusive: 19%	–
CC(C)(C)OC(=O)CNC(=O)c1nc[nH]c1C(=O)NCc1ccc(CNC(=O)OC(C)(C)C)cc1	inactive: 0.0925%	–
O=C(COc1ccc(Br)cc1Cl)NC1CCCCC1	inconclusive: 7.2%	–
Nc1nonc1-n1nnc(C(=O)N/N=C/c2ccccc2)c1CN1CCc2ccccc21	inconclusive: 5.39%	–
COc1ccc(/C=N/NC(=O)c2cc3cc(OC)c(OC)cc3[nH]2)cc1	–	inconclusive: 17.8 µM [falling, single point]
O=c1cc(N2CCOCC2)c2ccccc2o1	inconclusive: -19.9%	–
Oc1ccc(Cl)cc1CNCc1ccc(C(F)(F)F)cc1	inconclusive: 18.5%	–
O=C(CSC1=NC(=O)C(Cc2ccccc2)C(=O)N1)Nc1ncccn1 (stereo not given)	inconclusive: 4.95%	–
CCOC(=O)C1CCN(C(=O)CCC(=O)NCCc2ccc(Cl)cc2)CC1	inconclusive: 4.2%	–
COc1ccc(C(C)NC(=O)c2ccoc2C)cc1OC (stereo not given)	inconclusive: -2.75%	–
Oc1ccccc1/C=N/NC(=S)NC1CC2CCC1C2 (stereo not given)	inconclusive: -15%	–
Cc1ccc(S(=O)(=O)N(C)/N=C/c2ccc(C(=O)O)cc2)cc1	inactive: 12.6%	–

Grouped by structure: the entries above with a Cl atom (7)
SMILES	activity change, negative = inhibition	Potency
CN(CC(=O)Nc1ccc(Cl)c(C(F)(F)F)c1)C(=O)CCN1C(=O)C2CCCCC2C1=O (stereo not given)	inconclusive: -2.48%	–
O=C(NC12CC3CC(CC(C3)C1)C2)c1ccc(COc2ccc(Cl)cc2[N+](=O)[O-])o1	–	inconclusive: 10 µM [rising, partial curve]
Cc1cc(C)n2ncc(C(=O)Nc3ccc(Cl)c(Cl)c3)c2n1	inconclusive: 20.7%	–
CCOc1ccc(C(=O)Nc2ccc(NC(=O)c3ccco3)c(Cl)c2)cc1Cl	inactive: 21.5%	–
O=C(COc1ccc(Br)cc1Cl)NC1CCCCC1	inconclusive: 7.2%	–
Oc1ccc(Cl)cc1CNCc1ccc(C(F)(F)F)cc1	inconclusive: 18.5%	–
CCOC(=O)C1CCN(C(=O)CCC(=O)NCCc2ccc(Cl)cc2)CC1	inconclusive: 4.2%	–
